The values below come from US20050065102.

By UniProt entry, the sequences of proteins in these tests, tags left out. Residues count along the entry.
UniProt P08621, 2-437: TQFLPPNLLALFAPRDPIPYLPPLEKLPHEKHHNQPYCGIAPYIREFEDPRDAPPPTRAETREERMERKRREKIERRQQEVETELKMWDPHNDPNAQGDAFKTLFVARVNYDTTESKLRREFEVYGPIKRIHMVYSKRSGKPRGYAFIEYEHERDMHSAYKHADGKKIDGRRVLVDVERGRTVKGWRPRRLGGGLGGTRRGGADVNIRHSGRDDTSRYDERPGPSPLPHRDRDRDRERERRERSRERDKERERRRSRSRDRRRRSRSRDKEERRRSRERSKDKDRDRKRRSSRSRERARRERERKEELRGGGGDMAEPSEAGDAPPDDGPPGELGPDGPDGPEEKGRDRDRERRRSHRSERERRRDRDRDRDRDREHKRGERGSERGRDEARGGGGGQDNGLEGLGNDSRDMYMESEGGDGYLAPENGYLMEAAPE

For some of these results: Where cells or extracts were used, other partners may take part. For some of these results: Negatives hold for the conditions tested. For some of these results: Weaker means in comparison with the reference protein, sequence or condition of that experiment. For some of these results: For at least one entry, the source does not settle the construct or the ends of the probe. For some of these results: Tags and fusion partners may be left off the protein sequences shown.

Series [1] has as its target T1, rHMG-I (recombinant HMG-I) (UniProt P17096).
T1 sequence (looked up, limits assumed): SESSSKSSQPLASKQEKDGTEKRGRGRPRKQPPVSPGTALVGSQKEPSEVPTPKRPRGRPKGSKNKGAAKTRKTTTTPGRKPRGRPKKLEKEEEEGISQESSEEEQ
As to the kind of experiment: SELEX. The conditions noted are these: purified recombinant protein, protein details: expressed in E. coli.

For series [2], the target named is HMG-I (HMGA1a) (Homo sapiens) (UniProt P17096). Description: EMSA. The conditions noted are these: supershifted by anti-HMG-I/Y; 60 mM KCl, 4 mM MgCl2, tRNA, 25 C; also UV crosslinking positive (FIGS. 5, 12); protein in an extract; label: 35S or 32P. In general terms: Mobility shift assays separate free from complexed probe on a gel.
For series [3] the target is unchanged. As to the kind of experiment: binding assay. The conditions noted are these: UV crosslinking, protein in an extract, label: 35S.
For series [4], the target named is U1 (70K) snRNP (Homo sapiens) (UniProt P08621). As to the kind of experiment: EMSA. Conditions: anti-U1 70K supershift in mock-transfected extract; absent in HMG-I transfected extract; protein in an extract; protein details: endogenous, SK-N-SH nuclear extract; label: 32P.

With “GGTGCCGATACGTAACTCACCGCATTTTGGC (double strand) [HMG-I selected DNA]”, the selection result in series [1] is given as “selected”.

Consider “TTGAATTAGGGTGCTATATTTTTGCATTTTGA (double strand) [HMG-I selected DNA]”, for which the selection result in series [1] is listed as “selected”. Turning to “GGCCGCGTGTAGATATTGGGATTTGGTGTG (double strand) [HMG-I selected DNA]”, the selection result in series [1] is “selected”.

As to “ACCTAGGTTATTCTGCGGTATGGTTATCTG (double strand) [HMG-I selected DNA]”, in series [1] (also listed as SEQ 63), the selection result is reported as “selected”. In the case of “GAGGTGTCAGGCGACACCTAAAAATTCACGC (double strand) [HMG-I selected DNA]”, the selection result in series [1] was “selected”. As for “CGTTCTCTTTCGGAAATTTTTGAGCACG (double strand) [HMG-I selected DNA]”, the selection result in series [1] is “selected”. “UGGUGGUGCUCUACAAGUACCGCUGCUACAAGGUGAGGCCCU [PS2 pre-mRNA probe No. 5]”: in series [2], the binding result is on record as “binds”. For “ATATCCTGCCAAAAATTTGTTCTCGGGGCTGA (double strand) [HMG-I selected DNA]”, in series [1], the selection result is listed as “selected”.

Regarding “TATCCAGTGGATAATTCCCCAATGTTATCT (double strand) [HMG-I selected DNA]”, in series [1], the selection result was “selected”. Take “GGTGCCGATACGTAACTCACCGCATTCTTGG (double strand) [HMG-I selected DNA]”: the selection result in series [1] is listed as “selected”. Turning to “CGTTCCGACCAATGGGTTCGGATAATACGTT (double strand) [HMG-I selected DNA]”, the selection result in series [1] (also listed as SEQ 58) is reported as “selected”. Regarding “CGTTCTCTTTCGGAAACGGTTTTTGAGCACG (double strand) [HMG-I selected DNA]”, the selection result in series [1] was “selected”. As to “GCCATGTTTTTAGATAATTGTGCTTAGGCGT (double strand) [HMG-I selected DNA]”, the selection result in series [1] is given as “selected”.

Turning to UGGUGGUGCUCUACAAGUA [RNA probe No. 9], the binding result in series [3] (SEQ 1 repeat only, lower than probe 10, variant of PS2 pre-mRNA probe No. 5) is “binds more weakly”. Regarding “ATCTGTAATTCCATGGTGGCTACTGGAACTA (double strand) [HMG-I selected DNA]”, the selection result in series [1] is listed as “selected”. Still for that read-out and setting: the entry for “GTGGAGGCTGCCGCGAGTTATCACAGTATAG (double strand) [HMG-I selected DNA]” is “selected”; for “CCACTTTGAATTAGGGTGCTATATTTTTGCAT (double strand) [HMG-I selected DNA]” it is “selected”; for “CGTGTTTCGCCAGAACCGCACTAGAGCAATTTGAA (double strand) [HMG-I selected DNA]” it is “selected”.

For the sequence “TGAGGCATGAAGGTAATTACTGCATATTGA (double strand) [HMG-I selected DNA]”, the selection result in series [1] is listed as “selected”. As for “GCUCUAAAAGUACCGCUGCUAAAAG [RNA probe No. 8]”, the binding result in series [3] (C to A in both repeats, variant of RNA probe No. 10) is “no binding”. Take “CACTTTGAATTAGGGTGCTATATGTTTTGCA (double strand) [HMG-I selected DNA]”: the selection result in series [1] was “selected”. The same measure, in the same setting: the entry for “GGGTGCCTAGCTCCGGAACATGGTTATTGA (double strand) [HMG-I selected DNA]” is “selected”. Turning to “UGGUGGUGCUCUACAAGUACCGCUGCUACAAGGUGAGGCCCUGGCCCUGCCCUCCAGCCACGCUUCUCUCCG [RNA probe No. 12]”, the binding result in series [4] is “binds”. Take “TCTGAGGCATGAAGGTAATTACTGCATCATT (double strand) [HMG-I selected DNA]”: the selection result in series [1] is “selected”.

“TGTTTCGCGTAAAGTATTACGTTGCTCTTTT (double strand) [HMG-I selected DNA]”: in series [1], the selection result is given as “selected”.

With “GTGGATAAATTCCCCAATGTTATCTTATGAA (double strand) [HMG-I selected DNA]”, in series [1] (also listed as SEQ 56), the selection result is on record as “selected”.

Take “AGGTTCGTGCACCCGGACCACAGTTTTTTCA (double strand) [HMG-I selected DNA]”: the selection result in series [1] was “selected”.

“CCGCUGCUACAAGGUGAGGCCCU [RNA probe No. 11]”: in series [3] (SEQ 2 repeat only, lower than probe 10, variant of PS2 pre-mRNA probe No. 5), the binding result is reported as “binds more weakly”.

As to “TGACCAAGTAAATCCGTCCCTCACTAGTGAA (double strand) [HMG-I selected DNA]”, the selection result in series [1] is “selected”. Take GCUCUACAAGGCUGCUACAAG [RNA probe No. 7]: the binding result in series [3] (repeats joined directly, variant of PS2 pre-mRNA probe No. 5) was “binds”. “TTGAATTAGGGTGCTATATGTTTTGCATTTT (double strand) [HMG-I selected DNA]”: in series [1], the selection result is “selected”.

On to “GGTGCCGATACGTAATCACCGCATTCTTGGC (double strand) [HMG-I selected DNA]”, for which the selection result in series [1] was “selected”. On the same count and under the same terms, for “CTTTGAATTAGGGTGCTATATTTTTGCATTTT (double strand) [HMG-I selected DNA]” the value was “selected”. As to “GTCGGGCCTGTATTTTGGTTGCTATTTTGAA (double strand) [HMG-I selected DNA]”, the selection result in series [1] (also listed as SEQ 49) is on record as “selected”.

Take “CTTTGAATTAGGGTGCTATATGGTTTGCATTTT (double strand) [HMG-I selected DNA]”: the selection result in series [1] is “selected”. For the sequence “GCGAGTCGGGCCTGTATTTTGGTTGCTATTT (double strand) [HMG-I selected DNA]”, the selection result in series [1] (also listed as SEQ 50) was “selected”.

As for “GGTTCATTCTGCGGTATGGTTATCTG (double strand) [HMG-I selected DNA]”, the selection result in series [1] (immunoprecipitation selection) is recorded as “selected”. Take GACCAUCUUCUUGGUGGU [RNA probe No. 6]: the binding result in series [3] (both repeats missing, variant of PS2 pre-mRNA probe No. 5) was “no binding”. In the case of “CTTCTGCGGTATAAGGTGGGTTGGTGTGCTC (double strand) [HMG-I selected DNA]”, the selection result in series [1] was “selected”. As for “GCUCUACAAGUACCGCUGCUACAAG [RNA probe No. 10]”, the binding result in series [3] (higher than the single-repeat probes, variant of PS2 pre-mRNA probe No. 5) was “binds”.
